The chains behind the UniProt entries cited, without tags or fusion partners.
UniProt Q0JBA9, entry or part of it: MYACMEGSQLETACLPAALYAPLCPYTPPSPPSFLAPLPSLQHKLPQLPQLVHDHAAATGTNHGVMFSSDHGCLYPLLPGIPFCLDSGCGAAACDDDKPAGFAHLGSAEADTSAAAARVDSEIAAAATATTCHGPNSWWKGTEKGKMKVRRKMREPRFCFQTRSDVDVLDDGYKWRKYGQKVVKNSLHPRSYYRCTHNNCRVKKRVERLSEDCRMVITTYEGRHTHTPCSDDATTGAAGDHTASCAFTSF

The list shows a part of the results.
Each sequence was assayed against OsWRKY34 (Oryza sativa, UniProt Q0JBA9 1-250) (assay: protein-binding microarray (RPBM); PBS, 2% BSA, 51.3 ng/ul salmon testes DNA, 50 uM zinc acetate, 200 nM TF, 25 C, 1 h; high values mean tight binding). Conditions: protein: recombinant; tags: N-terminal polyhistidine and DsRed monomer fusion (pET32a); label: CyDye5-dUTP incorporated in the synthesized complementary strand; 3' TTTTT single-stranded linker to array surface; dsDNA, one strand shown.
Summary of the method: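 For the binding signal, per-feature fluorescence intensity was read in arbitrary units on an Axon 4000B scanner. Before scanning, a 2% BSA-blocked custom Agilent array made double-stranded with Cy5-dUTP was washed after 1 h at 25 °C with 200 nM protein and 50 µM zinc acetate. The proteins were Ni–NTA-purified transcription factors with N-terminal polyhistidine and DsRed fusions, expressed in E. coli BL21-CodonPlus.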
For “AACTACTCTCTCCGTCCGATAGAACTCAACTGGACACACACGGAGTCACCTAGTGCAG”, the binding signal was 8130 fluorescence intensity (a.u.).
With “GCCACCACCGCCAATCGCCACCGCCTCACCACGCTGACCCCGGAGTCACCTAGTGCAG” the binding signal was 11000 fluorescence intensity (a.u.).
In the case of “TACACTCCATGTTTTGGCTGTTTTGACTTTCGCATGATCACGGAGTCACCTAGTGCAG”, the binding signal is reported as 9370 fluorescence intensity (a.u.).
With “ATCCACAACCATCCATCTCCATTCGCCATTTCCGCCCACTCGGAGTCACCTAGTGCAG” the binding signal was 11600 fluorescence intensity (a.u.).
With “ACGTTTTGCCCCTGGAGGGCATTTCCTTTTGATTAAATTACGGAGTCACCTAGTGCAG” the binding signal was 8480 fluorescence intensity (a.u.).
With “ATTGCAACCATTCATCTCTTTTAGCCCTCTAAAAAAAATACGGAGTCACCTAGTGCAG” the binding signal was 8640 fluorescence intensity (a.u.).
With “CGCTGGGACTTCTCTGCTATCTTTTCCTGTGTCTACATTTCGGAGTCACCTAGTGCAG” the binding signal was 8700 fluorescence intensity (a.u.).
“TTCACGGTTGAATATCTGTTTACTTATCTTTTTACTTATACGGAGTCACCTAGTGCAG” was tested, and the binding signal was 8620 fluorescence intensity (a.u.).
For “GTGGTGGAGGAGGAGGAGGAGGATGAGGAGGAAGCGGCTGCGGAGTCACCTAGTGCAG”, the binding signal was 8570 fluorescence intensity (a.u.).
“CATCCTCGCCGTCATTTTGCGCCGCCTCTTGGACACCCGCCGGAGTCACCTAGTGCAG” was tested, and the binding signal was 9250 fluorescence intensity (a.u.).
In the case of “GCTCTCTTTGACTTTATCAGAGTTCCCGTAGTATCTAAACCGGAGTCACCTAGTGCAG”, the binding signal is reported as 8830 fluorescence intensity (a.u.).
With “GTACGCAACTTGTCCGCAGCCGCGACCCCGACCCGACCCGCGGAGTCACCTAGTGCAG” the binding signal was 8200 fluorescence intensity (a.u.).
For “CTCCTCCTCCGGCCACGTCGACGTCGCACCAACCGCCGCCCGGAGTCACCTAGTGCAG”, the binding signal was 8480 fluorescence intensity (a.u.).
“GATCTAGCCTTATCCTCCTTCGTCGCCTCCGGATTGGTTTCGGAGTCACCTAGTGCAG” was tested, and the binding signal was 8550 fluorescence intensity (a.u.).
“CCCGTCTCTTTCACGACCCACTCCGCCTCGCCTCCACTCCCGGAGTCACCTAGTGCAG” was tested, and the binding signal was 8390 fluorescence intensity (a.u.).
With “GATTCCCGCCATCTCTATCCTCCTACTCGTCGCTGTCATCCGGAGTCACCTAGTGCAG” the binding signal was 10200 fluorescence intensity (a.u.).
For “GCTTCTATATCCGTGATTGTTAACACTATTATATTGTTATCGGAGTCACCTAGTGCAG”, the binding signal was 11700 fluorescence intensity (a.u.).
With “TTTGCATTCTACTATGTCTGGCAGCATCTGCTGTAGTTGGCGGAGTCACCTAGTGCAG” the binding signal was 8990 fluorescence intensity (a.u.).
For “TTGTGGGGCCCGCTTTTGTCCTGATTTTTCTCGTTCTTTCCGGAGTCACCTAGTGCAG”, the binding signal was 11300 fluorescence intensity (a.u.).
For “GCGTCTCCATTGGTTGAGGAGTGCCACACCCTGATTTTTCCGGAGTCACCTAGTGCAG”, the binding signal was 8080 fluorescence intensity (a.u.).
“GTGGAGGGGAGGGGCTGCTGATGGGCTTTGGCCTAGAGCTCGGAGTCACCTAGTGCAG” was tested, and the binding signal was 14000 fluorescence intensity (a.u.).
With “CTCCAATCGGTTTTAGATTACTTTGTTAACTTTTGACCTACGGAGTCACCTAGTGCAG” the binding signal was 8350 fluorescence intensity (a.u.).
With “CAATGGGGTTTTGACTGTCAGCTGCATTCGCACCCTTGCACGGAGTCACCTAGTGCAG” the binding signal was 9480 fluorescence intensity (a.u.).
With “GTGCTTCCCAGCCTTCACTGTATGTCTGTATCGTTTTTCACGGAGTCACCTAGTGCAG” the binding signal was 15000 fluorescence intensity (a.u.).
In the case of “GTGATTGGATGGGTAGTGGAGACAGGTGGGAAAAATGAATCGGAGTCACCTAGTGCAG”, the binding signal is reported as 8510 fluorescence intensity (a.u.).
“CCTCGCCCACTCAACAGCCGCCGCCTCTCGGCTGCACAGCCGGAGTCACCTAGTGCAG” was tested, and the binding signal was 11200 fluorescence intensity (a.u.).
With “AAAAGCCATCACTGCTCTGCTAGCATCATTGTAGTACCAGCGGAGTCACCTAGTGCAG” the binding signal was 8290 fluorescence intensity (a.u.).
For “AGGAGGGGTTGTTTGTCTCTAATCGCTCTCGTTCCCCATTCGGAGTCACCTAGTGCAG”, the binding signal was 9620 fluorescence intensity (a.u.).
In the case of “AGGTTACGTACTCTCTGCTCCCTACATTAGCACTGGCGCACGGAGTCACCTAGTGCAG”, the binding signal is reported as 8290 fluorescence intensity (a.u.).
“GATATATTTGTTTTGTGTTAAAAATGCTACTATATTTTTTCGGAGTCACCTAGTGCAG” was tested, and the binding signal was 9290 fluorescence intensity (a.u.).
In the case of “TTGTATGATGCCGTTGATTTTTTTTGTCTAACGTTTAACCCGGAGTCACCTAGTGCAG”, the binding signal is reported as 8360 fluorescence intensity (a.u.).
For “CTACACTGGTCTGTTTGTCAACCATGGCGGGGAATGAGGACGGAGTCACCTAGTGCAG”, the binding signal was 11900 fluorescence intensity (a.u.).
For “ACATTCTACAATATACCATCGACTTTTGCTTAACTTCTACCGGAGTCACCTAGTGCAG”, the binding signal was 10000 fluorescence intensity (a.u.).
In the case of “GCGGCGGCGGCGCTGGGGTCGGGGTTCGGCGGTCGCAATGCGGAGTCACCTAGTGCAG”, the binding signal is reported as 8920 fluorescence intensity (a.u.).
“ATAGTGCTCTTATCTCTCATCTTTTATCTTTTCGAAATATCGGAGTCACCTAGTGCAG” was tested, and the binding signal was 8410 fluorescence intensity (a.u.).
With “GTAGATTTTTTTTTGTGCAAGTTAGCCAAATTTTGACTTGCGGAGTCACCTAGTGCAG” the binding signal was 8660 fluorescence intensity (a.u.).
With “AACTGCACGTACTATATTCACATGCTAACATAAGCTTTGCCGGAGTCACCTAGTGCAG” the binding signal was 9850 fluorescence intensity (a.u.).
“CCCCAACCTTTTCAACCACACCCACCCAACACGCCATGATCGGAGTCACCTAGTGCAG” was tested, and the binding signal was 9460 fluorescence intensity (a.u.).
With “CACAAATACCTCTATGTTGTGCTTATACCATTTTATTTCTCGGAGTCACCTAGTGCAG” the binding signal was 8680 fluorescence intensity (a.u.).
“CATTGATTTGATGCGTCTGGTAGTGTGGTGGTGTTCTTGACGGAGTCACCTAGTGCAG” was tested, and the binding signal was 8220 fluorescence intensity (a.u.).
With “CGGGGTTCTTGTGTTTATTGTTAAGATCCGGTTTGCTGAACGGAGTCACCTAGTGCAG” the binding signal was 21900 fluorescence intensity (a.u.).
For “GCCCGGATCAAACGGCATGAGTTGACCAACTCGTCTGGTACGGAGTCACCTAGTGCAG”, the binding signal was 8800 fluorescence intensity (a.u.).
